From PubChem BioAssay (NCATS)
Where “and” joins values, the source holds several entries; their conditions need not be identical. Equal values may be shown once. Inconclusive results, whose numbers are uncertain, are shown with a selection of clear calls. Potencies of inconclusive entries are doubtful fits and often do not repeat. Calls of active or inactive are those of the source. Calls come from the whole dose curve; as a rule, active = well fitted curve in the direction sought with a large enough effect; inconclusive = small, poorly fitted or top-dose-only effect, or another doubt; inactive = no such curve, though single readings can be large; an effect the other way counts as inactive or inconclusive.

Assays:
[1] = qHTS of pediatric cancer cell lines to identify multiple opportunities for drug repurposing: Primary screen for Rh41 cells (AID 1347108); note: nearly all actives have a fitted effect of over 70% in size
Procedure, shortened: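 500-1,000 cells/well; 5 h pre-incubation 37 °C/5% CO2; compound pinned; 48 h; CellTiter-Glo, 15 min RT; luminescence. MIPE 11-pt from 0.78 nM, NPC 8-pt from 0.59 nM final. Bortezomib 2.3 µM final as positive control.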

[2] = qHTS of pediatric cancer cell lines to identify multiple opportunities for drug repurposing: Confirmatory screen for BT-12 cells (AID 1347112);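 note: viability read after 48 h of compound exposure; nearly all actives have a fitted effect of over 55% in size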
Procedure, shortened: (§1)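 Cells (500-1,000/well) rested 5 h, then received compounds for 48 h; metabolically active cells were measured by CellTiter-Glo luminescence. Final concentrations spanned up to 46 µM (MIPE, 11-point) or 0.59 nM-46 µM (NPC, 8-point) in primary screens, 11-point in follow-ups.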

[3] = qHTS of pediatric cancer cell lines to identify multiple opportunities for drug repurposing: Confirmatory screen for DAOY cells (AID 1347114); note: nearly all actives have a fitted effect of over 65% in size
Procedure, shortened: (§2)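 Viability measured as metabolically active cells via CellTiter-Glo luminescence following 48 hours of compound exposure, 11-point dilutions in confirmatory testing. 500-1,000 cells/well plated 5 hours before dosing; controls were DMSO and 2.3 µM bortezomib.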

[4] = qHTS of pediatric cancer cell lines to identify multiple opportunities for drug repurposing: Confirmatory screen for SJ-GBM2 cells (AID 1347116); note: nearly all actives have a fitted effect of over 60% in size
Procedure, shortened: as §2

[5] = qHTS of pediatric cancer cell lines to identify multiple opportunities for drug repurposing: Confirmatory screen for SK-N-MC cells (AID 1347111);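 note: cells exposed to compound for 48 h before the readout; nearly all actives have a fitted effect of over 70% in size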
Procedure, shortened: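 Seed 500-1,000 cells/well; rest 5 h at 37 degrees C. Pin-transfer compounds, 11-point titration. Incubate 48 h. Add CellTiter-Glo, 15 min RT, read luminescence.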

[6] = qHTS of pediatric cancer cell lines to identify multiple opportunities for drug repurposing: Confirmatory screen for NB-EBc1 cells (AID 1347115);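 note: cells exposed to compound for 48 h before the viability read; nearly all actives have a fitted effect of over 45% in size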
Procedure, shortened: as §1

[7] = qHTS of pediatric cancer cell lines to identify multiple opportunities for drug repurposing: Confirmatory screen for NB1643 cells (AID 1347109); details: NB1643 neuroblastoma cell viability; series mostly up to 45.9 µM; note: nearly all actives have a fitted effect of over 45% in size
Procedure, shortened: as §1

[8] = qHTS of pediatric cancer cell lines to identify multiple opportunities for drug repurposing: Confirmatory screen for A673 cells (AID 1347110);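 note: cells exposed to compound for 48 h before the viability read; nearly all actives have a fitted effect of over 65% in size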
Procedure, shortened: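 qHTS titration format: primary MIPE 0.78 nM-46 µM (11 pts), NPC 0.59 nM-46 µM; confirmation 11 pts. 48 h, CTG luminescence.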

[9] = qHTS of pediatric cancer cell lines to identify multiple opportunities for drug repurposing: Confirmatory screen for LAN-5 cells (AID 1347113); note: nearly all actives have a fitted effect of over 65% in size
Procedure, shortened: as §1
Potency is the fitted concentration of half-maximal effect.

With `CC(C)(O)Cn1c(NC(=O)c2ccc(-c3cn[nH]c3)s2)nc2cc(CN3CCOCC3)ccc21` the Potency [1] was active: 1180 nM, the Potency [2] was active: 1.04 µM and the Potency [3] was active: 2.61 µM. For the same molecule, the Potency [4] was active: 1.17 µM.
With `COC(=O)Nc1nc2ccc(C(=O)c3cccs3)cc2[nH]1` the Potency [1] was inconclusive: 10.5 nM [cytotoxic, full curve] and inconclusive: 119 nM [cytotoxic, full curve], the Potency [5] was active: 0.147 µM and the Potency [2] was active: 0.522 µM. The Potency [6] was inconclusive: 0.185 µM [cytotoxic, full curve] and the Potency [4] was inconclusive: 0.185 µM [cytotoxic, full curve].
In the case of `CC[C@@]1(O)C(=O)OCc2c1cc1n(c2=O)Cc2cc3c(CN(C)C)c(O)ccc3nc2-1`, the Potency [7] is reported as active: 0.329 µM and the Potency [4] is reported as active: 1.31 µM.
In the case of `C=C1C[C@H]2[C@@H]3C=C(C)C4=CC(=O)CC[C@]4(C)[C@H]3CC[C@]2(C)[C@@]1(OC(C)=O)C(C)=O`, the Potency [7] is reported as “inactive”, the Potency [8] is reported as inconclusive: 32.9 µM [cytotoxic, single point] and the Potency [2] is reported as inconclusive: 32.9 µM [cytotoxic, partial curve, poor fit]. The Potency [3] was inconclusive: 18.5 µM [cytotoxic, partial curve].
For `C[C@H]1O[C@@H](O[C@H]2CC[C@@]3(C)[C@H](CC[C@@H]4[C@@H]3C[C@@H](O)[C@]3(C)[C@@H](C5=CC(=O)OC5)CC[C@]43O)C2)C[C@H](O)[C@@H]1O[C@H]1C[C@H](O)[C@H](O[C@H]2C[C@H](O)[C@H](O[C@@H]3O[C@H](CO)[C@@H](O)[C@H](O)[C@H]3O)[C@@H](C)O2)[C@@H](C)O1`, the Potency [1] was inconclusive: 150 nM [cytotoxic, full curve], the Potency [3] was active: 0.117 µM and the Potency [4] was active: 0.465 µM.
With `CC1(C)O[C@@H]2C[C@H]3[C@@H]4CCC5=CC(=O)CC[C@]5(C)[C@@]4(F)[C@@H](O)C[C@]3(C)[C@]2(C(=O)CCl)O1` the Potency [8] was “inactive”, the Potency [5] was inconclusive: 36.9 µM [cytotoxic, single point] and the Potency [9] was inconclusive: 23.3 µM [rising, partial curve, poor fit]. The Potency [3] was “inactive”, the Potency [6] was “inactive” and the Potency [4] was “inactive”.
With `COc1ccc(S(=O)(=O)Nc2cccnc2Nc2ccc(O)cc2)cc1` the Potency [4] was inconclusive: 0.928 µM [cytotoxic, full curve].
With `CCOC(=O)[C@H](CCc1ccccc1)N[C@@H](C)C(=O)N1CCCC1C(=O)O` (some centres undefined) the Potency [2] was inconclusive: 11.7 µM [cytotoxic, partial curve], the Potency [9] was active: 9.27 µM and the Potency [6] was inconclusive: 8.27 µM [cytotoxic, partial curve, poor fit]. For the same molecule, the Potency [4] was inconclusive: 14.7 µM [cytotoxic, partial curve].
In the case of `C=Cc1c(C)c2cc3nc(cc4[nH]c(cc5nc(cc1[nH]2)C(C)=C5CCC(=O)O)c(CCC(=O)OC)c4C)[C@@]1(C)C3=CC=C(C(=O)OC)[C@H]1C(=O)OC`, the Potency [8] is reported as inconclusive: 32.9 µM [cytotoxic, single point], the Potency [5] is reported as inconclusive: 29.3 µM [cytotoxic, single point] and the Potency [9] is reported as inconclusive: 36.9 µM [cytotoxic, single point]. For the same molecule, the Potency [3] was inconclusive: 20.8 µM [cytotoxic, partial curve], the Potency [6] was “inactive” and the Potency [4] was “inactive”.
In the case of `CC[C@@H]1C(=O)N(C)c2cnc(Nc3ccc(C(=O)NC4CCN(C)CC4)cc3OC)nc2N1C1CCCC1`, the Potency [1] is reported as inconclusive: 29.6 nM [cytotoxic, full curve, poor fit], the Potency [3] is reported as inconclusive: 0.0131 µM [cytotoxic, full curve, poor fit] and the Potency [4] is reported as active: 1.04 µM.
In the case of `CCCC(=O)O[C@]1(C(=O)CO)CC[C@H]2[C@@H]3CCC4=CC(=O)CC[C@]4(C)[C@H]3[C@@H](O)C[C@@]21C`, the Potency [5] is reported as “inactive”, the Potency [2] is reported as “inactive” and the Potency [9] is reported as inconclusive: 29.3 µM [rising, single point]. The Potency [6] was “inactive” and the Potency [4] was “inactive”.
For `C[C@@H]1C[C@H]2[C@@H]3CCC4=CC(=O)C=C[C@]4(C)[C@@]3(F)[C@@H](O)C[C@]2(C)[C@H]1C(=O)CO`, the Potency [5] was inconclusive: 26.1 µM [cytotoxic, single point] and the Potency [4] was “inactive”.
For `C[C@]12C=CC(=O)C=C1[C@@H](F)C[C@@H]1[C@@H]2[C@@H](O)C[C@@]2(C)[C@H]1CC[C@]2(O)C(=O)CO`, the Potency [7] was “inactive”, the Potency [5] was “inactive” and the Potency [6] was “inactive”. The Potency [4] was inconclusive: 3.29 µM [rising, full curve, poor fit].
In the case of `Nc1nc(N)c2nc(CNc3ccc(C(=O)NC(CCC(=O)O)C(=O)O)cc3)cnc2n1` (centres undefined), the Potency [2] is reported as active: 0.928 µM, the Potency [3] is reported as inconclusive: 2.61 µM [cytotoxic, full curve] and the Potency [6] is reported as inconclusive: 0.0021 µM [rising, full curve, poor fit]. The Potency [4] was inconclusive: 3.69 µM [cytotoxic, full curve].
With `NC(=O)NO` the Potency [7] was “inactive”, the Potency [5] was “inactive” and the Potency [9] was “inactive”. The Potency [3] was “inactive” and the Potency [4] was inconclusive: 0.0369 µM [cytotoxic, full curve, poor fit].
With `C[C@@H]1C[C@H]2[C@@H]3C[C@H](F)C4=CC(=O)C(Cl)=C[C@]4(C)[C@@]3(F)[C@@H](O)C[C@]2(C)[C@@]1(O)C(=O)CO` the Potency [7] was inconclusive: 32.9 µM [cytotoxic, single point], the Potency [5] was inconclusive: 36.9 µM [cytotoxic, single point] and the Potency [2] was inconclusive: 36.9 µM [cytotoxic, single point]. For the same molecule, the Potency [9] was inconclusive: 32.9 µM [cytotoxic, single point], the Potency [3] was “inactive” and the Potency [6] was inconclusive: 29.3 µM [cytotoxic, single point]. For the same molecule, the Potency [4] was inconclusive: 36.9 µM [cytotoxic, single point].
With `CS(=O)(=O)c1ccc([C@@H](O)[C@@H](CO)NC(=O)C(Cl)Cl)cc1` the Potency [7] was inconclusive: 0.0208 µM [rising, full curve], the Potency [5] was inconclusive: 2.08 µM [rising, partial curve, poor fit] and the Potency [3] was “inactive”. For the same molecule, the Potency [6] was “inactive” and the Potency [4] was “inactive”.
In the case of `COc1cc(C=CC(=O)CC(=O)C=Cc2ccc(O)c(OC)c2)ccc1O`, the Potency [9] is reported as active: 26.9 µM, the Potency [3] is reported as inconclusive: 13.5 µM [cytotoxic, full curve] and the Potency [6] is reported as inconclusive: 47.9 µM [cytotoxic, single point]. For the same molecule, the Potency [4] was inconclusive: 47.9 µM [cytotoxic, single point].
In the case of `CC1(C)O[C@@H]2C[C@H]3[C@@H]4C[C@H](F)C5=CC(=O)CC[C@]5(C)[C@H]4[C@@H](O)C[C@]3(C)[C@]2(C(=O)CO)O1`, the Potency [5] is reported as inconclusive: 36.9 µM [cytotoxic, single point], the Potency [3] is reported as “inactive” and the Potency [4] is reported as “inactive”.
For `O=C1N=C(O)CN1/N=C/c1ccc(-c2ccc([N+](=O)[O-])cc2)o1`, the Potency [5] was “inactive”, the Potency [2] was “inactive” and the Potency [3] was inconclusive: 16.5 µM [cytotoxic, partial curve]. The Potency [6] was “inactive” and the Potency [4] was “inactive”.
For `CC(C)(C(=O)c1cccnc1)c1cccnc1`, the Potency [7] was “inactive”, the Potency [2] was “inactive” and the Potency [9] was inconclusive: 0.131 µM [rising, full curve]. For the same molecule, the Potency [3] was “inactive” and the Potency [4] was inconclusive: 0.0104 µM [rising, full curve].
For `CC(=O)OCC(=O)[C@@]12N=C(C)O[C@@H]1C[C@H]1[C@@H]3CCC4=CC(=O)C=C[C@]4(C)[C@H]3[C@@H](O)C[C@@]12C`, the Potency [2] was inconclusive: 0.737 µM [cytotoxic, full curve, poor fit], the Potency [6] was inconclusive: 3.69 µM [cytotoxic, partial curve, poor fit] and the Potency [4] was active: 1.04 µM.
With `CC(=O)[C@H]1CC[C@H]2[C@@H]3C[C@H](C)C4=CC(=O)CC[C@]4(C)[C@H]3[C@@H](O)C[C@]12C` the Potency [7] was inconclusive: 7.37 µM [cytotoxic, partial curve, poor fit], the Potency [5] was inconclusive: 11.7 µM [cytotoxic, single point] and the Potency [9] was “inactive”. For the same molecule, the Potency [3] was inconclusive: 18.5 µM [cytotoxic, partial curve, poor fit], the Potency [6] was inconclusive: 9.27 µM [cytotoxic, single point] and the Potency [4] was “inactive”.
For `CC1CCc2c(N3CCC(O)CC3)c(F)cc3c(=O)c(C(=O)O)cn1c23` (centres undefined), the Potency [7] was inconclusive: 20.8 µM [cytotoxic, partial curve], the Potency [8] was inconclusive: 0.928 µM [cytotoxic, full curve] and the Potency [5] was inconclusive: 11.7 µM [cytotoxic, single point]. The Potency [2] was inconclusive: 9.27 µM [cytotoxic, full curve], the Potency [9] was “inactive” and the Potency [3] was inconclusive: 16.5 µM [cytotoxic, partial curve, poor fit]. The Potency [4] was inconclusive: 0.147 µM [rising, full curve, poor fit].
With `CNNCc1ccc(C(=O)NC(C)C)cc1` the Potency [7] was inconclusive: 0.0013 µM [rising, full curve], the Potency [5] was inconclusive: 36.9 µM [cytotoxic, single point] and the Potency [9] was “inactive”. For the same molecule, the Potency [3] was “inactive” and the Potency [4] was “inactive”.
In the case of `CC1C(=O)OC2C(O)C34C5CC(C(C)(C)C)C36C(OC(=O)C6O)OC4(C(=O)O5)C12O` (centres undefined), the Potency [5] is reported as “inactive” and the Potency [3] is reported as “inactive”.
In the case of `Nc1nc2c(c(=O)[nH]1)N(C=O)[C@H](CNc1ccc(C(=O)N[C@@H](CCC(=O)O)C(=O)O)cc1)CN2`, the Potency [7] is reported as “inactive”, the Potency [8] is reported as inconclusive: 36.9 µM [cytotoxic, single point] and the Potency [2] is reported as “inactive”. For the same molecule, the Potency [9] was “inactive” and the Potency [3] was “inactive”.
With `COc1cccc2c1C(=O)c1c(O)c3c(c(O)c1C2=O)C[C@@](O)(C(=O)CO)C[C@H]3O[C@H]1C[C@H](N)[C@H](O)[C@H](C)O1` the Potency [6] was inconclusive: 0.657 µM [cytotoxic, full curve].
With `CC(C)C[C@H](NC(=O)[C@H](Cc1ccccc1)NC(=O)c1cnccn1)B(O)O` the Potency [1] was active: 29.6 nM, the Potency [6] was active: 0.0465 µM and the Potency [4] was active: 0.0329 µM.
